{"source": "patent US11390664B2", "about": "“Antibodies that potently neutralize hepatitis B virus and uses thereof” (priority 2015, dated 2022)", "tested_on": "HBV (genotype D)", "test": "HBV spreading in humanized uPA/SCID mice, treatment from 3 weeks post-infection", "type": "in vivo, uPA/SCID mice repopulated with primary human hepatocytes", "conditions": "end of experiment, week 9; as worded in legend of FIG. 12", "note": "Some entries share one result that the patent states for a list of compounds.", "data": [{"smiles": "C=C1[C@H](CO)[C@@H](O)C[C@@H]1n1cnc2c(=O)[nH]c(N)nc21", "note": "[entecavir]", "values": [{"measurement": "HBsAg-positive cells (hepatocytes)", "value": "1-5%"}]}]}
